Counter-ions that a name gives are not always drawn. Some of the results follow. Single values are uncertain here, since repeats match poorly.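 A screen tested FDA-approved drugs combined with one-eighth-MIC colistin against a clinical mcr-1-positive, multidrug-resistant E. coli isolate, measuring OD600 at 24 h. Controls were untreated bacteria (growth) and broth alone (blank). An OD600 under 0.2 marked a combination as active.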
Test system: Escherichia coli 42 (mcr-1-positive clinical isolate)
Test: OD600 after 24 h growth with compound plus colistin (absorbance units (OD600)); higher = more bacterial growth (less inhibition)
Conditions: first compound 25 µM; colistin concentration 0.5 ug/mL; incubation time 24 h; 37 °C

OD600, inactive:
O=C1Cc2cc(CCN3CCN(c4nsc5ccccc45)CC3)c(Cl)cc2N1 [Ziprasidone] + CCC(C)CCCC(=O)N[C@@H](CCN)C(=O)N[C@H](C(=O)N[C@@H](CCN)C(=O)N[C@H]1CCNC(=O)[C@H]([C@@H](C)O)NC(=O)[C@H](CCN)NC(=O)[C@H](CCN)NC(=O)[C@H](CC(C)C)NC(=O)[C@@H](CC(C)C)NC(=O)[C@H](CCN)NC1=O)[C@@H](C)O [colistin] 0.938
C[C@@H]1O[C@@H]1P(=O)(O)O [Fosfomycin sodium] + CCC(C)CCCC(=O)N[C@@H](CCN)C(=O)N[C@H](C(=O)N[C@@H](CCN)C(=O)N[C@H]1CCNC(=O)[C@H]([C@@H](C)O)NC(=O)[C@H](CCN)NC(=O)[C@H](CCN)NC(=O)[C@H](CC(C)C)NC(=O)[C@@H](CC(C)C)NC(=O)[C@H](CCN)NC1=O)[C@@H](C)O [colistin] 0.887
Nc1ccc(S(=O)(=O)NC(=O)c2ccccc2)cc1 [Sulfabenzamide] + CCC(C)CCCC(=O)N[C@@H](CCN)C(=O)N[C@H](C(=O)N[C@@H](CCN)C(=O)N[C@H]1CCNC(=O)[C@H]([C@@H](C)O)NC(=O)[C@H](CCN)NC(=O)[C@H](CCN)NC(=O)[C@H](CC(C)C)NC(=O)[C@@H](CC(C)C)NC(=O)[C@H](CCN)NC1=O)[C@@H](C)O [colistin] 0.9
O=C(O)c1ccccc1 [Benzoic acid] + CCC(C)CCCC(=O)N[C@@H](CCN)C(=O)N[C@H](C(=O)N[C@@H](CCN)C(=O)N[C@H]1CCNC(=O)[C@H]([C@@H](C)O)NC(=O)[C@H](CCN)NC(=O)[C@H](CCN)NC(=O)[C@H](CC(C)C)NC(=O)[C@@H](CC(C)C)NC(=O)[C@H](CCN)NC1=O)[C@@H](C)O [colistin] 0.957
Cc1ncc(C[n+]2csc(CCO)c2C)c(N)n1 [Thiamine hydrochloride] + CCC(C)CCCC(=O)N[C@@H](CCN)C(=O)N[C@H](C(=O)N[C@@H](CCN)C(=O)N[C@H]1CCNC(=O)[C@H]([C@@H](C)O)NC(=O)[C@H](CCN)NC(=O)[C@H](CCN)NC(=O)[C@H](CC(C)C)NC(=O)[C@@H](CC(C)C)NC(=O)[C@H](CCN)NC1=O)[C@@H](C)O [colistin] 1.35
CN(C)CCOC(c1ccccc1)c1ccccc1 [Diphenhydramine hydrochloride] + CCC(C)CCCC(=O)N[C@@H](CCN)C(=O)N[C@H](C(=O)N[C@@H](CCN)C(=O)N[C@H]1CCNC(=O)[C@H]([C@@H](C)O)NC(=O)[C@H](CCN)NC(=O)[C@H](CCN)NC(=O)[C@H](CC(C)C)NC(=O)[C@@H](CC(C)C)NC(=O)[C@H](CCN)NC1=O)[C@@H](C)O [colistin] 1.06
CNC(=O)c1ccccc1Sc1ccc2c(/C=C/c3ccccn3)n[nH]c2c1 [Axitinib] + CCC(C)CCCC(=O)N[C@@H](CCN)C(=O)N[C@H](C(=O)N[C@@H](CCN)C(=O)N[C@H]1CCNC(=O)[C@H]([C@@H](C)O)NC(=O)[C@H](CCN)NC(=O)[C@H](CCN)NC(=O)[C@H](CC(C)C)NC(=O)[C@@H](CC(C)C)NC(=O)[C@H](CCN)NC1=O)[C@@H](C)O [colistin] 0.954
O=C(CCCCCCC(=O)Nc1ccccc1)NO [Vorinostat] + CCC(C)CCCC(=O)N[C@@H](CCN)C(=O)N[C@H](C(=O)N[C@@H](CCN)C(=O)N[C@H]1CCNC(=O)[C@H]([C@@H](C)O)NC(=O)[C@H](CCN)NC(=O)[C@H](CCN)NC(=O)[C@H](CC(C)C)NC(=O)[C@@H](CC(C)C)NC(=O)[C@H](CCN)NC1=O)[C@@H](C)O [colistin] 0.678
CN(C)CCc1c[nH]c2ccc(CS(=O)(=O)N3CCCC3)cc12 [Almotriptan Malate] + CCC(C)CCCC(=O)N[C@@H](CCN)C(=O)N[C@H](C(=O)N[C@@H](CCN)C(=O)N[C@H]1CCNC(=O)[C@H]([C@@H](C)O)NC(=O)[C@H](CCN)NC(=O)[C@H](CCN)NC(=O)[C@H](CC(C)C)NC(=O)[C@@H](CC(C)C)NC(=O)[C@H](CCN)NC1=O)[C@@H](C)O [colistin] 1.13
C[C@@H]1[C@H](O)[C@@H](C)/C=C/C=C/C=C/C=C/C=C/C=C/C=C/[C@H](O[C@@H]2O[C@H](C)[C@@H](O)[C@H](N)[C@@H]2O)C[C@@H]2O[C@](O)(C[C@@H](O)C[C@@H](O)[C@H](O)CC[C@@H](O)C[C@@H](O)CC(=O)O[C@H]1C)C[C@H](O)[C@H]2C(=O)O [Amphotericin B] + CCC(C)CCCC(=O)N[C@@H](CCN)C(=O)N[C@H](C(=O)N[C@@H](CCN)C(=O)N[C@H]1CCNC(=O)[C@H]([C@@H](C)O)NC(=O)[C@H](CCN)NC(=O)[C@H](CCN)NC(=O)[C@H](CC(C)C)NC(=O)[C@@H](CC(C)C)NC(=O)[C@H](CCN)NC1=O)[C@@H](C)O [colistin] 1.1

Source: the supplement of paper PMC11546906
